Patent publication US20080267967A1 (TRILLIUM THERAPEUTICS, published 2008)
Results are given in words; binding and its absence hold for the method and conditions named. Some entries that bind do so weakly or less than the wild type. Where a sequence is shown, tags or fusion partners need not be part of it.

Legend:
[1] = biological target: T1, CD200 receptor (CD200R) on primary mouse cells, isoform not stated (mouse) (UniProt Q9ES57); experiment: FACS, LPS stimulated CD200r+ splenic Mph
T1 sequence: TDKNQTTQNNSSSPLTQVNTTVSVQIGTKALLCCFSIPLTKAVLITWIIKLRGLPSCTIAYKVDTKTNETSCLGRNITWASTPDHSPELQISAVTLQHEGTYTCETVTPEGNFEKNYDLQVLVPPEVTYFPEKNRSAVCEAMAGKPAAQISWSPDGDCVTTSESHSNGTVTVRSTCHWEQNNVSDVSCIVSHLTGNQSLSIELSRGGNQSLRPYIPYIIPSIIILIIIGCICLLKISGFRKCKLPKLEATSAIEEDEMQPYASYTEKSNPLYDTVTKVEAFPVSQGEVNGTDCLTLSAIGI

[2] = biological target: T1, CD200 receptor (CD200R) on primary mouse cells, isoform not stated (mouse); experiment: FACS with FITC-CD200:Fc on activated T cells
[3] = biological target: T2, murine CD200R2b (murine); experiment: FACS, FITC-CD200Fc on COS cells transiently transfected with CD200R isoform cDNA
T2 sequence: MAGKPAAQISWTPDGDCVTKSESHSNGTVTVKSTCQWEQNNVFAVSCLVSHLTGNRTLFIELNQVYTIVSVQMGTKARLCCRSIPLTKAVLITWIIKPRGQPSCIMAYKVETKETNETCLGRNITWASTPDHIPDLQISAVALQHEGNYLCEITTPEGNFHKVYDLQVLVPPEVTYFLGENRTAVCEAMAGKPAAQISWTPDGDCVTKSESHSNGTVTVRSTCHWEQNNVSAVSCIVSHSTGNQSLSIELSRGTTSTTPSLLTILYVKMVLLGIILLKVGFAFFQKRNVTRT

[4] = biological target: T2, murine CD200R2b (murine); experiment: FACS, FITC-CD200Fc on control COS cells and COS cells transiently transfected with CD200R isoforms
[5] = biological target: T1, CD200 receptor (CD200R) on primary mouse cells, isoform not stated (mouse); experiment: FACS, ConA-activated PLN cells and LPS-stimulated splenic macrophages; no binding above control with a 5-fold excess of unlabeled CD200:Fc

Measured: binding

B1: CD200Fc immunoadhesin (extracellular domain of CD200 linked to a murine IgG2a Fc region) (Fc fusion, mouse, UniProt O54901 31-232, looked up)
chain: QVEVVTQDERKALHTTASLRCSLKTSQEPLIVTWQKKKAVSPENMVTYSKTHGVVIQPAYKDRINVTELGLWNSSITFWNTTLEDEGCYMCLFNTFGSQKVSGTACLTLYVQPIVHLHYNYFEDHLNITCSATARPAPAISWKGTGTGIENSTESHFHSNGTTSVTSILRVKDPKTQVGKEVICQVLYLGNVIDYKQSLDKG
modifications: FITC-labelled in the binding assays
notes: extracellular domain; Made in a baculovirus system in Sf insect cells; also called FITC-CD200Fc; FITC-CD200:Fc; not shown: murine IgG2a Fc region; the ch
binds: all assays above
